In this assay the target is Flag-FBXW7α (full-length) (human) (UniProt Q969H0). In words: affinity purification with mass spectrometry.

Sequences of proteins named here, by UniProt entry; tags and fusion partners are left off. Residues count along the entry.
UniProt Q969H0: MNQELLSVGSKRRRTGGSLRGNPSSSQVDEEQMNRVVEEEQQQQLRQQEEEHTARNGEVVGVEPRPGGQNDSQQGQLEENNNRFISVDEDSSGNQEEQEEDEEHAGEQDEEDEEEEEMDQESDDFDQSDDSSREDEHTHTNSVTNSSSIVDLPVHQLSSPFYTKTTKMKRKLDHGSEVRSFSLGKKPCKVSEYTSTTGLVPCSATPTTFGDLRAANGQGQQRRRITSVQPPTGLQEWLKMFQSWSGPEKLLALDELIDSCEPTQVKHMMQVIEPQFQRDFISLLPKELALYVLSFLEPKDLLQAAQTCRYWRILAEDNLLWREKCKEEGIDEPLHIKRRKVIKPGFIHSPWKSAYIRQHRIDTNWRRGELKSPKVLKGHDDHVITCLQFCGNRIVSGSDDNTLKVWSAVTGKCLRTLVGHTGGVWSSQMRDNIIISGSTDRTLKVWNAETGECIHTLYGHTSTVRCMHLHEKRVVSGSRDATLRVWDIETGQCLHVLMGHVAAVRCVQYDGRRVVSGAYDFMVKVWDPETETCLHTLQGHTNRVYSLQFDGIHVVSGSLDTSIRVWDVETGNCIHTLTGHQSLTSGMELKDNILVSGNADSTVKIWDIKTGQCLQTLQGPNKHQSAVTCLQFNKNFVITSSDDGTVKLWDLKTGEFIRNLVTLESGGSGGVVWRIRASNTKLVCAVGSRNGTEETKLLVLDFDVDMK
UniProt P01106: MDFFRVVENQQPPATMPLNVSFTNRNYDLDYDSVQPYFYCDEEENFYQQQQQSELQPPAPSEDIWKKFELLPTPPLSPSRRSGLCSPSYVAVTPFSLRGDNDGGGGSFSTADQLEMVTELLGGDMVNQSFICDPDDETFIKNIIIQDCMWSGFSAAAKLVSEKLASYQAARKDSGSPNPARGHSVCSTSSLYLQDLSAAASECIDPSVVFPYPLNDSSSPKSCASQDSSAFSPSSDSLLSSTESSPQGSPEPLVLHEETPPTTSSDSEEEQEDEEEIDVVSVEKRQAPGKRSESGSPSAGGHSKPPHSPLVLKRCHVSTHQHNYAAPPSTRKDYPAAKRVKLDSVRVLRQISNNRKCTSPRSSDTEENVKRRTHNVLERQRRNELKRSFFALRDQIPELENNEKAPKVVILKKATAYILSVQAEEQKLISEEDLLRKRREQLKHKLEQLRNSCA
UniProt Q04721, residues 26-2471: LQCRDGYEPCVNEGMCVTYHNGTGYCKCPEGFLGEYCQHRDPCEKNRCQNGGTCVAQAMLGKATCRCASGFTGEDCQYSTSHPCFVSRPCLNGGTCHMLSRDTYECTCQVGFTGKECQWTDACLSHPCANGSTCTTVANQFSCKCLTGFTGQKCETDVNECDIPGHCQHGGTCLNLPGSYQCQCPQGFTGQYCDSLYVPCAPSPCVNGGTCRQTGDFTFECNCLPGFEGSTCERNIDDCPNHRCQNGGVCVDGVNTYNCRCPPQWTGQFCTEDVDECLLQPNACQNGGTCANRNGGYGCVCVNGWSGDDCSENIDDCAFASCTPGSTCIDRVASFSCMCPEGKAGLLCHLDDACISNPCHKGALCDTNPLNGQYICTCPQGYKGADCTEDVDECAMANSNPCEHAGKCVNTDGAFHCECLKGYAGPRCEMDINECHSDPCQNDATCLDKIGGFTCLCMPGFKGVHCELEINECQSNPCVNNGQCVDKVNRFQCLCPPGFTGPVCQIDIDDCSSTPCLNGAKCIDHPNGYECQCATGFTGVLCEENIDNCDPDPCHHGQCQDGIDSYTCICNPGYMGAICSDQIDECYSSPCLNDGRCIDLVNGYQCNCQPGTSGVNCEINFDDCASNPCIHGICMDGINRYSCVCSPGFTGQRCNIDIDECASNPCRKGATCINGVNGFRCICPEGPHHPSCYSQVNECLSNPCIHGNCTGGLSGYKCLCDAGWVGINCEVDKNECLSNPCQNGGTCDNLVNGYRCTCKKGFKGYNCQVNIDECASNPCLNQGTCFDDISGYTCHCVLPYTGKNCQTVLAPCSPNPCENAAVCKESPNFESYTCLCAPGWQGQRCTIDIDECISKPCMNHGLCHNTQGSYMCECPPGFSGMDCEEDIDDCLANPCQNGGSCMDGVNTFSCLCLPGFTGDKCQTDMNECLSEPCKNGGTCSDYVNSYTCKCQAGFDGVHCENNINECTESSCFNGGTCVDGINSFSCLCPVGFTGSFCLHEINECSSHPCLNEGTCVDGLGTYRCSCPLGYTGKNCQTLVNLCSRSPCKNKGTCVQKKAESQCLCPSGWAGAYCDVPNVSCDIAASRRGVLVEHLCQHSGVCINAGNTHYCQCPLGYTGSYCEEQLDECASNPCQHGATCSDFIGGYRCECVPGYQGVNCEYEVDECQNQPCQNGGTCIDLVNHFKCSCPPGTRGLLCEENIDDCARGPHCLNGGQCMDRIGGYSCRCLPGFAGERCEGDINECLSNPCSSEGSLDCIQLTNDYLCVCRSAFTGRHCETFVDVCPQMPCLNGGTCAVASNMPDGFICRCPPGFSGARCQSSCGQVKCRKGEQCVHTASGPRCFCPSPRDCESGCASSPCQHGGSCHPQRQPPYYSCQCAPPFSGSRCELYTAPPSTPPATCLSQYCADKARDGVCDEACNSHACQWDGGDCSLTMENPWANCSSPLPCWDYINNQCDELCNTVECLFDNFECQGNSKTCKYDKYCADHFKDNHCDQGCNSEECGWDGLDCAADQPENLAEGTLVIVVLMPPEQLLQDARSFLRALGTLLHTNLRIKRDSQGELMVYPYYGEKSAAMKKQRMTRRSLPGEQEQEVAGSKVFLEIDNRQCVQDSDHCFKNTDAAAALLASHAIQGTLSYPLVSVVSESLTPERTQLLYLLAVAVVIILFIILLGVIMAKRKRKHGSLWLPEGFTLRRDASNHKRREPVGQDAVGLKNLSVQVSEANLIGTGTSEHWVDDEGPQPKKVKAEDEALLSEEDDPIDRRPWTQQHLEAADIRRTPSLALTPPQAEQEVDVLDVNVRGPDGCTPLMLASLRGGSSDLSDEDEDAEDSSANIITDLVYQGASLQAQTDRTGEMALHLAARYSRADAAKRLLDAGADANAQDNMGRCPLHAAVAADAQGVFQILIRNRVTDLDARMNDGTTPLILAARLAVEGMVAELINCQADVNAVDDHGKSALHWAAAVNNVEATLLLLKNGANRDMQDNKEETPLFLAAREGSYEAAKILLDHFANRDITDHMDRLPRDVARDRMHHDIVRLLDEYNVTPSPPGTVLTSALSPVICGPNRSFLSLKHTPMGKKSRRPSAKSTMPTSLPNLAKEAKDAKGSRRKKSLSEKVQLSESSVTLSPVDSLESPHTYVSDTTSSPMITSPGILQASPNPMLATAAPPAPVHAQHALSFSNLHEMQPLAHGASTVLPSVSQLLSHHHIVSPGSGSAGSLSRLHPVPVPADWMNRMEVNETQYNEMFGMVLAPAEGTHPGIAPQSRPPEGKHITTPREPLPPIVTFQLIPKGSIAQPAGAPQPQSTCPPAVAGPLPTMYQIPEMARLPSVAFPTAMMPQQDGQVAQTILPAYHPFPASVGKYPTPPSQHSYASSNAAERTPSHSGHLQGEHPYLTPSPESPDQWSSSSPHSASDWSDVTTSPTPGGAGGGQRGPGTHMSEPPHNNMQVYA

No constants are given. Whether binding was seen depends on the method and setting. In cells and extracts the contact can be indirect. Here binding means that the protein was enriched with, or labelled near, the bait; the list need not be complete.

With MYC (from UniProt P01106 1-454), the binding entry is recorded as “binds”.

In the case of Notch2 (from UniProt Q04721 26-2471), the binding entry is listed as “binds”.

B1: FBXO45 (endogenous) (protein, UniProt P0C2W1 1-286)
chain: MAAPAPGAGAASGGAGCSGGGAGAGAGSGSGAAGAGGRLPSRVLELVFSYLELSELRSCALVCKHWYRCLHGDENSEVWRSLCARSLAEEALRTDILCNLPSYKAKIRAFQHAFSTNDCSRNVYIKKNGFTLHRNPIAQSTDGARTKIGFSEGRHAWEVWWEGPLGTVAVIGIATKRAPMQCQGYVALLGSDDQSWGWNLVDNNLLHNGEVNGSFPQCNNAPKYQIGERIRVILDMEDKTLAFERGYEFLGVAFRGLPKVCLYPAVSAVYGNTEVTLVYLGKPLDG
As for B1, the binding result is recorded as “binds”.

Values taken from article doi:10.1101/493791.
